These results are taken from PMC12084551.

Amino acid sequences for entries named in this document (tags omitted). A change or cut given only in a name is not applied to a line headed by its entry.
UniProt Q2XVP4: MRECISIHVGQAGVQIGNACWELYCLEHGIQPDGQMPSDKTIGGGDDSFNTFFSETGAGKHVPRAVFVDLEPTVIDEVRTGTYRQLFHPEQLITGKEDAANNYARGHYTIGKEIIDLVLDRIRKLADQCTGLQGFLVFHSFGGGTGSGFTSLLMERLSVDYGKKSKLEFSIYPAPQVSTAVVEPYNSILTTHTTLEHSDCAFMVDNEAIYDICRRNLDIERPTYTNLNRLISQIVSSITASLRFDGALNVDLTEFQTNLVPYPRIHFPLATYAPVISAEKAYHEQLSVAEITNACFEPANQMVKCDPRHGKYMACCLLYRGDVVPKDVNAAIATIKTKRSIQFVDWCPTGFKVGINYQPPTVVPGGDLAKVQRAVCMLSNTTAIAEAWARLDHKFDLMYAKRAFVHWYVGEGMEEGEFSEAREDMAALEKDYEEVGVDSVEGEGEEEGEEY

No constants are given. Whether binding was seen depends on the method and setting. Binding calls can cover weak binding; strength is not graded here.

For this assay, the target named is α-tubulin (porcine brain, in the microtubule) (pig (porcine brains)) (UniProt Q2XVP4). In words: cryo-EM structure; 0.5 μM GMPCPP-microtubules on the grid, 5 μM GAS2-GAR in BRB80 added twice; 14-protofilament microtubules, MiRP/RELION and CryoSPARC; both purified.

For the substance “GAS2-GAR domain (residues 198–314) (from UniProt P11862 198-314) (domain or fragment)”, the binding entry is “binds”.
